Experimental data as given in article PMC11263569.
Results are given in words; binding and its absence hold for the method and conditions named. In cells and extracts the contact can be indirect. Binding can be weak; no strength is given. Tags and fused reporters may be left off the sequences shown.

Target: MYH9 motor domain, His-tagged
Test: co-IP; HEK-293T cells co-transfected; lysates immunoprecipitated with anti-His antibody (MYH9), immunoblot with anti-Flag (RGS19) or anti-Myc (STUB1) antibody

B1: FLAG-RGS19 (regulator of G-protein signaling 19) (protein, UniProt P49795 1-217)
chain: MPTPHEAEKQITGPEEADRPPSMSSHDTASPAAPSRNPCCLCWCCCCSCSWNQERRRAWQASRESKLQPLPSCEVCATPSPEEVQSWAQSFDKLMHSPAGRSVFRAFLRTEYSEENMLFWLACEELKAEANQHVVDEKARLIYEDYVSILSPKEVSLDSRVREGINKKMQEPSAHTFDDAQLQIYTLMHRDSYPRFLSSPTYRALLLQGPSQSSSEA
- binding: binds
